Data as given in paper PMC7423155.
These are yes or no findings as the source states them, for the method shown. Binding seen in cells or lysates may run through a third protein. For some of these results: Binding can be weak; no strength is given.

B1: ERAL1 (enzyme, UniProt O75616 44-437)
chain: VSCVAGSAFSGPRLASASRSNGQGSALDHFLGFSQPDSSVTPCVPAVSMNRDEQDVLLVHHPDMPENSRVLRVVLLGAPNAGKSTLSNQLLGRKVFPVSRKVHTTRCQALGVITEKETQVILLDTPGIISPGKQKRHHLELSLLEDPWKSMESADLVVVLVDVSDKWTRNQLSPQLLRCLTKYSQIPSVLVMNKVDCLKQKSVLLELTAALTEGVVNGKKLKMRQAFHSHPGTHCPSPAVKDPNTQSVGNPQRIGWPHFKEIFMLSALSQEDVKTLKQYLLTQAQPGPWEYHSAVLTSQTPEEICANIIREKLLEHLPQEVPYNVQQKTAVWEEGPGGELVIQQKLLVPKESYVKLLIGPKGHVISQIAQEAGHDLMDIFLCDVDIRLSVKLLK
B2: C4orf14 (enzyme, UniProt Q8NC60 1-698)
chain: MLPARLPFRLLSLFLRGSAPTAARHGLREPLLERRCAAASSFQHSSSLGRELPYDPVDTEGFGEGGDMQERFLFPEYILDPEPQPTREKQLQELQQQQEEEERQRQQRREERRQQNLRARSREHPVVGHPDPALPPSGVNCSGCGAELHCQDAGVPGYLPREKFLRTAEADGGLARTVCQRCWLLSHHRRALRLQVSREQYLELVSAALRRPGPSLVLYMVDLLDLPDALLPDLPALVGPKQLIVLGNKVDLLPQDAPGYRQRLRERLWEDCARAGLLLAPGHQGPQRPVKDEPQDGENPNPPNWSRTVVRDVRLISAKTGYGVEELISALQRSWRYRGDVYLVGATNAGKSTLFNTLLESDYCTAKGSEAIDRATISPWPGTTLNLLKFPICNPTPYRMFKRHQRLKKDSTQAEEDLSEQEQNQLNVLKKHGYVVGRVGRTFLYSEEQKDNIPFEFDADSLAFDMENDPVMGTHKSTKQVELTAQDVKDAHWFYDTPGITKENCILNLLTEKEVNIVLPTQSIVPRTFVLKPGMVLFLGAIGRIDFLQGNQSAWFTVVASNILPVHITSLDRADALYQKHAGHTLLQIPMGGKERMAGFPPLVAEDIMLKEGLGASEAVADIKFSSAGWVSVTPNFKDRLHLRGYTPEGTVLTVRPPLLPYIVNIKGQRIKKSVAYKTKKPPSLMYNVRKKKGKINV
B3: TRUB2 (enzyme, UniProt O95900 11-331)
chain: GLFAVYKPPGLKWKHLRDTVELQLLKGLNARKPPAPKQRVRFLLGPMEGSEEKELTLTATSVPSFINHPLVCGPAFAHLKVGVGHRLDAQASGVLVLGVGHGCRLLTDMYNAHLTKDYTVRGLLGKATDDFREDGRLVEKTTYDHVTREKLDRILAVIQGSHQKALVMYSNLDLKTQEAYEMAVRGLIRPMNKSPMLITGIRCLYFAPPEFLLEVQCMHETQKELRKLVHEIGLELKTTAVCTQVRRTRDGFFTLDSALLRTQWDLTNIQDAIRAATPQVAAELEKSLSPGLDTKQLPSPGWSWDSQGPSSTLGLERGAGQ
B4: RPUSD4 (enzyme, UniProt Q96CM3 16-377)
chain: NGQGCGSLFTLVSKPFCAAAAASTAINAQRLAEKLRAQKREQDTKKEPVSTNAVQRRVQEIVRFTRQLQRVHPNVLAKALTRGILHQDKNLVVINKPYGLPVHGGPGVQLCITDVLPILAKMLHGHKAEPLHLCHRLDKETTGVMVLAWDKDMAHQVQELFRTRQVVKKYWAITVHVPMPSAGVVDIPIVEKEAQGQQQHHKMTLSPSYRMDDGKMVKVRRSRNAQVAVTQYQVLSSTLSSALVELQPITGIKHQLRVHLSFGLDCPILGDHKYSDWNRLAPQKLSVGTLKKLGLEQSKARYIPLHLHARQLILPALGSGKEELNLVCKLPRFFVHSLHRLRLEMPNEDQNENNEAKCLGAQ
B5: MTG2 (enzyme, UniProt Q9H4K7 1-406)
chain: MAPARCFSARLRTVFQGVGHWALSTWAGLKPSRLLPQRASPRLLSVGRADLAKHQELPGKKLLSEKKLKRYFVDYRRVLVCGGNGGAGASCFHSEPRKEFGGPDGGDGGNGGHVILRVDQQVKSLSSVLSRYQGFSGEDGGSKNCFGRSGAVLYIRVPVGTLVKEGGRVVADLSCVGDEYIAALGGAGGKGNRFFLANNNRAPVTCTPGQPGQQRVLHLELKTVAHAGMVGFPNAGKSSLLRAISNARPAVASYPFTTLKPHVGIVHYEGHLQIAVADIPGIIRGAHQNRGLGSAFLRHIERCRFLLFVVDLSQPEPWTQVDDLKYELEMYEKGLSARPHAIVANKIDLPEAQANLSQLRDHLGQEVIVLSALTGENLEQLLLHLKVLYDAYAEAELGQGRQPLRW

molecular target: STREP2-FLAG-tagged RCC1L^V2 (human); experiment: co-IP; STREP2-FLAG-tagged RCC1L isoform as bait, captured on Strep-Tactin Sepharose overnight from trypsin-treated, sucrose gradient-purified HEK mitochondria lysed with 0.8% DDM; 10 washes; elution with 10 mM desthiobiotin; endogenous proteins in the elution found by immunoblot

Row | Binder | binding
1 | B1 | no binding
2 | B2 | no binding
3 | B3 | no binding
4 | B4 | no binding
5 | B5 | no binding

molecular target: STREP2-FLAG-tagged RCC1L^V3 (human); experiment: as above

Row | Binder | binding
6 | B1 | binds
7 | B2 | binds
